36 targets from the supplement of paper PMC7666118 can be followed below.

Protein sequences, listed by entry. Tags and fused reporters are not part of them. Lines headed by an entry give the natural chain unless they say otherwise; changes in a name come on top.
UniProt O95684: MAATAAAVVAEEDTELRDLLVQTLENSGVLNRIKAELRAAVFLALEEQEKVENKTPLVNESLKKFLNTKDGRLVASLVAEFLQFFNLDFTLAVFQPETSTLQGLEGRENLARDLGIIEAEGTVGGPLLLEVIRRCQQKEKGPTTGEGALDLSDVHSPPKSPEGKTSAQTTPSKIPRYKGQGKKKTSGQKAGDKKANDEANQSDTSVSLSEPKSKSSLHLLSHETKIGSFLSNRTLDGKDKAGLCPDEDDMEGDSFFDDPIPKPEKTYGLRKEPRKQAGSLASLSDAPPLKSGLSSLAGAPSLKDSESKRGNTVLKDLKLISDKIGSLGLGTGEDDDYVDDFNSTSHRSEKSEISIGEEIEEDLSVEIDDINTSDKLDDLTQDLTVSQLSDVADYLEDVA
UniProt Q7Z6M2: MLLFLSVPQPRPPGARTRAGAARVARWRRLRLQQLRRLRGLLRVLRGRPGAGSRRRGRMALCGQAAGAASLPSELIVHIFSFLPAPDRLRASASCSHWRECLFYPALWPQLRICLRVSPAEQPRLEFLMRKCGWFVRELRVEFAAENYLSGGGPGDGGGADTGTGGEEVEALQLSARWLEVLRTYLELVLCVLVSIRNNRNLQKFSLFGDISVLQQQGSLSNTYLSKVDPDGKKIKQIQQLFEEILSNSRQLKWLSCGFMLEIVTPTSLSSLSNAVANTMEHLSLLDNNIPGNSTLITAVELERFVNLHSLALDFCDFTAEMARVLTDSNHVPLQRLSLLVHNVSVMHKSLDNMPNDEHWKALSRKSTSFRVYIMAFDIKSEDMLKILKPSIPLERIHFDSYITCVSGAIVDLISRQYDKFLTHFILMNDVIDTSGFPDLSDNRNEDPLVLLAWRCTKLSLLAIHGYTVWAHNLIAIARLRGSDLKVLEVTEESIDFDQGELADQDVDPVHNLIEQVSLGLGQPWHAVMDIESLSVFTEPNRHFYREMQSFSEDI
UniProt Q96CN4: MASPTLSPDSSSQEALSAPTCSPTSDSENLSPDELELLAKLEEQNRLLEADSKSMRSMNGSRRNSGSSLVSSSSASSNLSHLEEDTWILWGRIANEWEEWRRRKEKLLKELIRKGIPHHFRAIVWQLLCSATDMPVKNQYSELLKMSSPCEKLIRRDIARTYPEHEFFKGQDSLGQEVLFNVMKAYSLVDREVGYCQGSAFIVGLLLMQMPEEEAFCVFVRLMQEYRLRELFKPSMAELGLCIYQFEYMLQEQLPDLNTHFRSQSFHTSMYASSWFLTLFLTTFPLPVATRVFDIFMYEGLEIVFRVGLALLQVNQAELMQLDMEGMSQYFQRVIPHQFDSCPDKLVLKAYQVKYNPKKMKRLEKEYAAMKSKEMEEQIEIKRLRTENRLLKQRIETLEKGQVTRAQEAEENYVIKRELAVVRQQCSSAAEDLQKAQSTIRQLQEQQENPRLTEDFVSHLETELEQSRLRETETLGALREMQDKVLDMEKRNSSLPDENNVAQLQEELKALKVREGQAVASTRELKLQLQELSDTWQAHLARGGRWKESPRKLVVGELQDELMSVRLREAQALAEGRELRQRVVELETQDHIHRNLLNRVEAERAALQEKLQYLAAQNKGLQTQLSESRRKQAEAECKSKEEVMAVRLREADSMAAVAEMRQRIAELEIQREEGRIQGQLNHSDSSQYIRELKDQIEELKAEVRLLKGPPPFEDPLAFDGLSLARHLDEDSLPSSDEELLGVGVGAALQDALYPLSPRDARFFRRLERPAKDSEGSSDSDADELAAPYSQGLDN
UniProt Q9UHY7: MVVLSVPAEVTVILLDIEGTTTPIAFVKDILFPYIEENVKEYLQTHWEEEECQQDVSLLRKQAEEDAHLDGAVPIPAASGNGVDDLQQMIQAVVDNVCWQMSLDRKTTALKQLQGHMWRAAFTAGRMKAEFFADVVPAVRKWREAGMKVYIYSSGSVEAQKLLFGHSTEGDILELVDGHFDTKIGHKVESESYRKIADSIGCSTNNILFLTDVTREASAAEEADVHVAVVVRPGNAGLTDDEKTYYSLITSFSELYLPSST
UniProt Q5W0V3: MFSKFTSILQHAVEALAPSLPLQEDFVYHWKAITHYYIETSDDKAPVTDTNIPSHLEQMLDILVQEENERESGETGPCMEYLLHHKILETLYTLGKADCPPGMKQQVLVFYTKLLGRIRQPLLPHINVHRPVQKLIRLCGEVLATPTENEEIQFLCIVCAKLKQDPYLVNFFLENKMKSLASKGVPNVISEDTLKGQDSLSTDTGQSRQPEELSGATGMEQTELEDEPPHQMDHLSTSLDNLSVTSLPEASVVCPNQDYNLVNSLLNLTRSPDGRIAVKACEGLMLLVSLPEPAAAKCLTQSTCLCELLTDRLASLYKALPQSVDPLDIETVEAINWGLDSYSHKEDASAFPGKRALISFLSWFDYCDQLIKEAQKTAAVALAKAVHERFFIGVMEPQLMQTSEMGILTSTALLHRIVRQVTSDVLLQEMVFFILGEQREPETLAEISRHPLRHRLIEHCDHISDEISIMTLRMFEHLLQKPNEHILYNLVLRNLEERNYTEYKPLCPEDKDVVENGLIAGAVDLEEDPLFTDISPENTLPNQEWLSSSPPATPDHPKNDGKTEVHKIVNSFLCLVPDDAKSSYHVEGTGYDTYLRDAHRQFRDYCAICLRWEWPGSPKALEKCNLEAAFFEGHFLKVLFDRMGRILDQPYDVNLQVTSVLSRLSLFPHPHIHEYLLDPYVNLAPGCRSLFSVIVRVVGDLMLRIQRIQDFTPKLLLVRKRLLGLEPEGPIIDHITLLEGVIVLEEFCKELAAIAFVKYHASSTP
UniProt Q9H098: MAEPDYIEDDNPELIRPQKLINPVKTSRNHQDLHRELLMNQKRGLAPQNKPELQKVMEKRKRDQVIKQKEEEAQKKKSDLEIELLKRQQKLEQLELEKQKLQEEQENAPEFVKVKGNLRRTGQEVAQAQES
UniProt Q9UKT8: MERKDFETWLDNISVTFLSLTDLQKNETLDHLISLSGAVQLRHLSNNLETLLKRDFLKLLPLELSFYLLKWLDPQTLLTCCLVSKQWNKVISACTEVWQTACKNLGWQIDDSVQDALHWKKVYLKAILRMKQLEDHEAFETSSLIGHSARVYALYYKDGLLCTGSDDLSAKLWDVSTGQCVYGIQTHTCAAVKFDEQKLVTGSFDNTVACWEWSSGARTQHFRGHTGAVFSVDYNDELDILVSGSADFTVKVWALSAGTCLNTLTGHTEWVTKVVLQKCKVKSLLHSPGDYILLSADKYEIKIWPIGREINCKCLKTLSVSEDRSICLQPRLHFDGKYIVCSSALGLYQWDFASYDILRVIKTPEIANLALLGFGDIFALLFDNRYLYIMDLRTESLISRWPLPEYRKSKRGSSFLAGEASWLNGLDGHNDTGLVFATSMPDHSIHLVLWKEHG
UniProt Q15717, whole entry: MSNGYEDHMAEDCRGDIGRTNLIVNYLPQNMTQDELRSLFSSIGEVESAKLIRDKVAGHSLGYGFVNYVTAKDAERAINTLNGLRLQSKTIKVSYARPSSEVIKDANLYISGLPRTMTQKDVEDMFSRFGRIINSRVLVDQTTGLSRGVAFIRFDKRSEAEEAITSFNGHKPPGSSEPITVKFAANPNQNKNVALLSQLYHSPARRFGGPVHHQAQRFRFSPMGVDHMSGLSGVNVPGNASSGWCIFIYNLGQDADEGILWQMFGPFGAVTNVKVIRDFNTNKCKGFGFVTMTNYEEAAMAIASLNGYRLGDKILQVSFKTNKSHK
UniProt O60739, whole entry: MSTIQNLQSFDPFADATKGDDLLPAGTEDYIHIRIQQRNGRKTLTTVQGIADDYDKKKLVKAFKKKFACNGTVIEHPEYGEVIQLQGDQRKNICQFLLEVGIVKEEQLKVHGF
UniProt P20042, whole entry: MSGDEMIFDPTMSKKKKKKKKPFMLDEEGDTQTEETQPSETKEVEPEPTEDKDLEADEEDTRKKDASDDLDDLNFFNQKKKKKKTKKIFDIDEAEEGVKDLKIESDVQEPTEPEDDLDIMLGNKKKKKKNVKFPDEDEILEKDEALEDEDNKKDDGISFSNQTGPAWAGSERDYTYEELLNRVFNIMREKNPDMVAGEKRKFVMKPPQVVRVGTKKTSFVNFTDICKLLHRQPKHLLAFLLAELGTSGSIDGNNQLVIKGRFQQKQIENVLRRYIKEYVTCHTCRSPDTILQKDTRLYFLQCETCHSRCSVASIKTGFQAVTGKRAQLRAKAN
UniProt P49770: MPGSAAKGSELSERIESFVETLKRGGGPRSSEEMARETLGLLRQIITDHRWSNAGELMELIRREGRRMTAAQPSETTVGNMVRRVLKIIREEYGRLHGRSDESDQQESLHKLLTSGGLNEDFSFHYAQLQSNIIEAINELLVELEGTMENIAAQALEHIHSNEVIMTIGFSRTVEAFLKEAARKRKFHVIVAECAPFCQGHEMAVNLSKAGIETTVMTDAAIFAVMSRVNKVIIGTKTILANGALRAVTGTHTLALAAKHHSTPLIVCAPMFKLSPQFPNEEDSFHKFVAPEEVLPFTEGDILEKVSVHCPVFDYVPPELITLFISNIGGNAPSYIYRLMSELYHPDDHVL
UniProt O95571: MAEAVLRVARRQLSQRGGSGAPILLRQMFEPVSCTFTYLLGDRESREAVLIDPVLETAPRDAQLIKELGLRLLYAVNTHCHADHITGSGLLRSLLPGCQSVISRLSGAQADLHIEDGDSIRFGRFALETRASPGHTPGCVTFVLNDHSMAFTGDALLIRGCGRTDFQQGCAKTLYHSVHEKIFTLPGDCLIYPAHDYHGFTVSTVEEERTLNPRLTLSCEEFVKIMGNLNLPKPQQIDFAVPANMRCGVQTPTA
UniProt Q9NVK5: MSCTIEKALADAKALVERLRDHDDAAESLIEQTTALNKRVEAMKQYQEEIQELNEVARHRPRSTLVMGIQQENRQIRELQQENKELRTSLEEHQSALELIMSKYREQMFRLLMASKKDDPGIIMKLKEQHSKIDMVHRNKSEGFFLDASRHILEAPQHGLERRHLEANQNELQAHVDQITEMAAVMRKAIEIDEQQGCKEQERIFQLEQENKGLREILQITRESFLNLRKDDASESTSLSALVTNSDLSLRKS
UniProt O95208: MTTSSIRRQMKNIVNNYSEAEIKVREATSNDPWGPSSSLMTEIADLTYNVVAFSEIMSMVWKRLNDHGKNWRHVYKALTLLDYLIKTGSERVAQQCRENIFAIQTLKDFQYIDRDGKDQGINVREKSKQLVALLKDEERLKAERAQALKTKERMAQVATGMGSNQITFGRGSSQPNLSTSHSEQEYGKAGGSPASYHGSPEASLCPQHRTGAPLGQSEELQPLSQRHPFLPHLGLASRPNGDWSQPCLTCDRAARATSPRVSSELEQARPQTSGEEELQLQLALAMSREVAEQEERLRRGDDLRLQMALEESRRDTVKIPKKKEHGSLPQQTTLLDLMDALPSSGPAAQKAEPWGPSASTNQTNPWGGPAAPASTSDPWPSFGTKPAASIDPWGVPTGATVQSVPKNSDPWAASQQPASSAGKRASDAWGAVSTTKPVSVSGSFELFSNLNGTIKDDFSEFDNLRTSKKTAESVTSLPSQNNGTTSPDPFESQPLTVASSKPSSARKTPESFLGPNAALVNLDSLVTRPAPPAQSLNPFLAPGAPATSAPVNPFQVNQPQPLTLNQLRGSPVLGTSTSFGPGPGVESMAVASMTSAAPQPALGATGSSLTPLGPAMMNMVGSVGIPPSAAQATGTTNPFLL
UniProt Q5T0N5: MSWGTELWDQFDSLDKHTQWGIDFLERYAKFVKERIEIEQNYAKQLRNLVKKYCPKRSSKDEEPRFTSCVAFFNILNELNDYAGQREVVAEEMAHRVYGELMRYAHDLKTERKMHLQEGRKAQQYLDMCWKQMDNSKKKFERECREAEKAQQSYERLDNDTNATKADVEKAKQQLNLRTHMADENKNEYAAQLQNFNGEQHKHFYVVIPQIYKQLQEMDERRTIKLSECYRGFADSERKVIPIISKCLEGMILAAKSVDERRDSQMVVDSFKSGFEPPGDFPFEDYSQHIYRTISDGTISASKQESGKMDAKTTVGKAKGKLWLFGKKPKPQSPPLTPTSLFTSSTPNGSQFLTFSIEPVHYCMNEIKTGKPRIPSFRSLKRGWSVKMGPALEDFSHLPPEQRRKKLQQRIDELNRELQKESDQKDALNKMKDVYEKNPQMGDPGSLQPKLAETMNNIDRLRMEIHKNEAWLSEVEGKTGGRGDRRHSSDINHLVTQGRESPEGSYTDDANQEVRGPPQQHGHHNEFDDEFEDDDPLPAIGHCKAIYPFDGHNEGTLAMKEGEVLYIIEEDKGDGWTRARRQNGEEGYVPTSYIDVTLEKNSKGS
UniProt Q9UIM3: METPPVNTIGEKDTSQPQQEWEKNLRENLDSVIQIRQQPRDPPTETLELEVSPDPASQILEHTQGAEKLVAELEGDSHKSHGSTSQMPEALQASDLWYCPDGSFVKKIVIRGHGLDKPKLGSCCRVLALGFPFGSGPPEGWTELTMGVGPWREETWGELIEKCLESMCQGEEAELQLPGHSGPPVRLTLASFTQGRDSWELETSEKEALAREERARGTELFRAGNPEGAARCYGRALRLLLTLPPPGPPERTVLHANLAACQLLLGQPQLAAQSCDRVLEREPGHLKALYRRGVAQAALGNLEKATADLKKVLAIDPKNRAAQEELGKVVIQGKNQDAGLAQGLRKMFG

This is one part of the list.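 The calls were made as follows: active = dose-dependent thermal stabilisation significant by F-test of dose-response against flat model at 10% FDR; inactive = not significant.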

Compound in the experiment: Nc1nc2c(ncn2[C@@H]2O[C@H](COP(=O)(O)OP(=O)(O)OP(=O)(O)O)[C@@H](O)[C@H]2O)c(=O)[nH]1
Briefly: dose-dependent thermal stabilisation call (2D-TPP, DLPTP, 10% FDR) (binary (1 = stabilised)); higher = stabilised by the compound. Particulars: system: Jurkat gel-filtered lysate; concentration range 1-500 µM.
As to EIF3B (UniProt P55884), the “dose-dependent thermal stabilisation call” value is inactive: 0.

ERCC1 (UniProt P07992): the “dose-dependent thermal stabilisation call” value was inactive: 0.

With FGFR1OP (UniProt O95684), the “dose-dependent thermal stabilisation call” value is inactive: 0.

Consider FBXO33 (UniProt Q7Z6M2), for which the “dose-dependent thermal stabilisation call” value is inactive: 0.

Consider FAM50A (UniProt Q14320), for which the “dose-dependent thermal stabilisation call” value was inactive: 0.

Regarding EVI5L (UniProt Q96CN4), the “dose-dependent thermal stabilisation call” value is active: 1.

For the target ENAH (UniProt Q8N8S7), the “dose-dependent thermal stabilisation call” value is inactive: 0.

Take ENOPH1 (UniProt Q9UHY7): the “dose-dependent thermal stabilisation call” value is inactive: 0.

Take FAM160B1 (UniProt Q5W0V3): the “dose-dependent thermal stabilisation call” value is inactive: 0.

With ERO1A (UniProt Q96HE7), the “dose-dependent thermal stabilisation call” value was inactive: 0.

Take FYN (UniProt P06241): the “dose-dependent thermal stabilisation call” value was inactive: 0.

FOXO3 (UniProt O43524): the “dose-dependent thermal stabilisation call” value is inactive: 0.

As for FAM107B (UniProt Q9H098), the “dose-dependent thermal stabilisation call” value was inactive: 0.

With FHL2 (UniProt Q14192), the “dose-dependent thermal stabilisation call” value is inactive: 0.

For the target FKBP4 (UniProt Q02790), the “dose-dependent thermal stabilisation call” value is inactive: 0.

For FAM91A1 (UniProt Q658Y4), the “dose-dependent thermal stabilisation call” value was inactive: 0.

FBXW2 (UniProt Q9UKT8): the “dose-dependent thermal stabilisation call” value was inactive: 0.

As for FAT1 (UniProt Q14517), the “dose-dependent thermal stabilisation call” value is inactive: 0.

For EPB41L2 (UniProt O43491), the “dose-dependent thermal stabilisation call” value is inactive: 0.

Turning to ERH (UniProt P84090), the “dose-dependent thermal stabilisation call” value is inactive: 0.

Regarding ELAVL1 (UniProt Q15717), the “dose-dependent thermal stabilisation call” value is active: 1.

In the case of EIF1B (UniProt O60739), the “dose-dependent thermal stabilisation call” value was inactive: 0.

In the case of EIF2S2 (UniProt P20042), the “dose-dependent thermal stabilisation call” value was inactive: 0.

Regarding EIF2B2 (UniProt P49770), the “dose-dependent thermal stabilisation call” value was inactive: 0.

Take ETHE1 (UniProt O95571): the “dose-dependent thermal stabilisation call” value was inactive: 0.

With ERCC4 (UniProt Q92889), the “dose-dependent thermal stabilisation call” value was active: 1.

For FGFR1OP2 (UniProt Q9NVK5), the “dose-dependent thermal stabilisation call” value is inactive: 0.

As to ELOA (UniProt Q14241), the “dose-dependent thermal stabilisation call” value was inactive: 0.

Consider EPN2 (UniProt O95208), for which the “dose-dependent thermal stabilisation call” value is inactive: 0.

For FNBP1L (UniProt Q5T0N5), the “dose-dependent thermal stabilisation call” value is inactive: 0.

For FKBPL (UniProt Q9UIM3), the “dose-dependent thermal stabilisation call” value was inactive: 0.

Consider ESYT1 (UniProt Q9BSJ8), for which the “dose-dependent thermal stabilisation call” value was inactive: 0.

Consider FIP1L1 (UniProt Q6UN15), for which the “dose-dependent thermal stabilisation call” value was inactive: 0.

Regarding FLNB (UniProt O75369), the “dose-dependent thermal stabilisation call” value is inactive: 0.

As to FBLN2 (UniProt P98095), the “dose-dependent thermal stabilisation call” value is inactive: 0.

In the case of ETS1 (UniProt P14921), the “dose-dependent thermal stabilisation call” value was inactive: 0.
